Measurements as given in PubChem BioAssay AID2685 (National Center for Advancing Translational Sciences (NCATS), 2010).
This is one part of the list. Shown are side measurements of this screen, not its main read-out; they come without a call. The list favours compounds with an active or inconclusive main result. Words in brackets tell the shape of the fitted curve; partial curves, single points and poor fits give uncertain potencies.

Experiment: qHTS Assay for Lipid Storage Modulators in Drosophila S3 Cells;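 on cell number change: cells counted by Cell Tracker Red CMTPX staining in the red channel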
Details: BODIPY lipid droplet fluorescence, 18-24 h; for cell number change: measured here: cell count max response, cells fed with added oleic acid
How it was run: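 Drosophila S3 cells got compounds at several concentrations plus oleic acid (400 uM solution). Laser-scanning cytometry with 488 nm excitation read lipid droplets at 500-530 nm and cells at 575-640 nm. Percent activity was relative to 20 uM Triacsin C.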

[1] = measured here: cell number channel AC50, cells fed with added oleic acid
[2] = measured here: lipid fluorescence (Fed channel) AC50, cells fed with added oleic acid

Compound | cell number change [%] | AC50 [1] | AC50 [2]
O=C(COC(=O)c1ccc(F)cc1Cl)NC(=O)NC1CCCC1 | -37.2 | 16.4 µM [falling, single point] | 5.8 µM [falling, full curve]
CCCCN(CC)C(=O)c1cc2c(=O)[nH]c3ccc(C)cc3c2s1 | -9.92 | – | –
CC1(C)C(=O)Nc2ccccc2N1C(=O)COC(=O)CNS(=O)(=O)c1ccc(F)c(F)c1F | 1.68 | – | 0.00411 µM [rising, full curve, poor fit]
CC1=C(C)/C(=N\OS(=O)(=O)c2ccc(C)cc2)C=CC1=O | -77 | 1.64 µM [falling, full curve] | 1.46 µM [falling, full curve]
CCOC(=O)c1sc(N)c(C(=O)Nc2ccccc2OC)c1C | 138 | 20.6 µM [rising, partial curve] | –
CCCCC(=O)OCC(=O)c1cc(C)n(-c2c(C)n(C)n(-c3ccccc3)c2=O)c1C | – | 6.51 µM [falling, single point] | 4.61 µM [falling, partial curve, poor fit]
Cc1nnc(SCc2ccccc2CSc2nnc(C)s2)s1 | 1.55 | 6.51 µM [falling, partial curve, poor fit] | –
Cc1cccc(OCCOC(=O)C2CCN(S(=O)(=O)c3cccs3)CC2)c1 | -15.3 | – | 25.9 µM [rising, single point]
Cc1cccc(OCC(=O)NC(=S)Nc2ccc(S(=O)(=O)NC3CCCCC3)cc2)c1 | 3.13 | – | –
O=C(C1CCCC1)N1CCN(S(=O)(=O)c2ccc(Cl)cc2)CC1 | 7.89 | – | 0.1 µM [rising, full curve, poor fit]
COc1ccc(CN(Cc2ccncc2)C(=O)CCC(=O)O)cc1 | 2.95 | – | –
CCN(CC)S(=O)(=O)c1cc(NC(=O)c2n[nH]c(=O)c3ccccc23)ccc1C | – | – | 3.26 µM [falling, partial curve]
CCc1ccc(N(C(=O)c2snc(C(N)=O)c2N)C(C(=O)NC2CCCC2)c2ccncc2)cc1 (configuration not stated) | -12.8 | – | 5.17 µM [falling, single point]
Cc1ccc(Nc2nc3ccccc3c(=O)[nH]2)cc1C | 4.98 | 0.103 µM [rising, full curve, poor fit] | 0.517 µM [rising, full curve, poor fit]
CCc1ccc(OCCSc2nc3ccccc3n2CC(=O)O)cc1 | -5.25 | – | 0.58 µM [falling, single point]
Cc1noc(NS(=O)(=O)c2ccc(NC(=O)CC(C)C)cc2)c1C | -7.83 | – | –
O=C(NCC(c1cccs1)N1CCOCC1)c1ccc(OCc2ccccc2)cc1 (configuration not stated) | -7.59 | 4.11 µM [falling, single point] | –

Quoted at random: 2 records from the list.
Compound | cell number change [%] | AC50 [1] | AC50 [2]
Cc1cccc(OCC(=O)NC(=S)Nc2ccc(S(=O)(=O)NC3CCCCC3)cc2)c1 | 3.13 | – | –
O=C(COC(=O)c1ccc(F)cc1Cl)NC(=O)NC1CCCC1 | -37.2 | 16.4 µM [falling, single point] | 5.8 µM [falling, full curve]
